Results deposited as PubChem BioAssay AID1159578 (Peter MacCallum Cancer Centre, 2015).
Aim: 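Genome-wide hunt for genes controlling movement of lymphatic endothelial cells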 (primary screen). Cell system: human lymphatic endothelial cells. Knock-down reagent: siRNA pool against human genes, 40 nM. Time to read-out: 48 h after transfection. Measured: 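Cells stained with dye and imaged after a scratch; covered wound area and nuclei counted, duplicates averaged, migration set against mock wells and turned into a robust z-score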. Reading the numbers: migration robust z-score: higher = faster migration into the scratch; migration relative to mock: higher = more scratch area covered than mock; nuclei per well: higher = more cells in the well. Rule for the call: 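Pools averaging fewer than 3300 nuclei are never called; remaining pools count as changed when migration robust z lies outside -2 to 2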. Calls: active = migration changed; inactive = no migration change, or too few cells.
This is a random part of about 18,000 deposited reagents. In the full data, about 1,030 (5.7%) are marked active. 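Inactive calls also include pools with fewer than 3300 nuclei, whose migration was not assessed.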 The raw values are shown without normalisation.

| target | migration robust z-score | migration class with cell-count check | migration relative to mock | nuclei per well, duplicate mean | outcome |
| --- | --- | --- | --- | --- | --- |
| CA7 (GeneID 766) | -0.18 | migration z between -2 and 2; enough cells | 0.77 | 6034 | inactive |
| PRRT1 (GeneID 80863) | -0.66 | migration z between -2 and 2; enough cells | 0.72 | 5800 | inactive |
| STYXL1 (GeneID 51657) | 1.06 | migration z between -2 and 2; enough cells | 1.01 | 5244 | inactive |
| PPP2R5E (GeneID 5529) | -0.99 | migration z between -2 and 2; enough cells | 0.62 | 4760 | inactive |
| NOX3 (GeneID 50508) | 0.78 | migration z between -2 and 2; enough cells | 0.96 | 6354 | inactive |
| GRK1 (GeneID 6011) | -0.93 | migration z between -2 and 2; enough cells | 0.62 | 6208 | inactive |
| COG1 (GeneID 9382) | -0.06 | migration z between -2 and 2; enough cells | 0.86 | 5158 | inactive |
| PTGR1 (GeneID 22949) | 0.1 | migration z between -2 and 2; enough cells | 0.82 | 6184 | inactive |
| EFNA3 (GeneID 1944) | -2.1 | migration z below -2; enough cells | 0.4 | 4419 | active |
| ATF7 (GeneID 11016) | 0.88 | migration z between -2 and 2; enough cells | 0.98 | 4452 | inactive |
| ISM2 (GeneID 145501) | -0.36 | migration z between -2 and 2; enough cells | 0.8 | 5816 | inactive |
| PAMR1 (GeneID 25891) | 0.46 | migration z between -2 and 2; enough cells | 0.9 | 5006 | inactive |
| SP1 (GeneID 6667) | -0.34 | migration z between -2 and 2; enough cells | 0.74 | 5321 | inactive |
| RETSAT (GeneID 54884) | 1.73 | migration z between -2 and 2; enough cells | 1.34 | 6686 | inactive |
| ST6GALNAC6 (GeneID 30815) | 0.1 | migration z between -2 and 2; enough cells | 0.82 | 6522 | inactive |
| PON1 (GeneID 5444) | -0.18 | migration z between -2 and 2; enough cells | 0.77 | 5546 | inactive |
| TNNT3 (GeneID 7140) | -0.77 | migration z between -2 and 2; enough cells | 0.68 | 5822 | inactive |
| HNRNPA1L2 (GeneID 144983) | -0.82 | migration z between -2 and 2; enough cells | 0.68 | 4866 | inactive |
| ABCG5 (GeneID 64240) | -3.01 | migration z below -2; enough cells | 0.22 | 3520 | active |
| HSDL1 (GeneID 83693) | 2.54 | migration z above 2; enough cells | 1.29 | 5715 | active |
| SMARCC2 (GeneID 6601) | 0.39 | migration z between -2 and 2; enough cells | 0.88 | 5078 | inactive |
| OR2T33 (GeneID 391195) | -1.82 | migration z between -2 and 2; enough cells | 0.42 | 3912 | inactive |
| LGALS9 (GeneID 3965) | 0.39 | migration z between -2 and 2; enough cells | 0.88 | 4818 | inactive |
| P3H3 (GeneID 10536) | -0.13 | migration z between -2 and 2; enough cells | 0.78 | 4572 | inactive |
| SLC5A5 (GeneID 6528) | -0.91 | migration z between -2 and 2; enough cells | 0.63 | 4832 | inactive |
| FLRT3 (GeneID 23767) | 0.87 | migration z between -2 and 2; enough cells | 1.11 | 7162 | inactive |
| HYDIN (GeneID 54768) | 0.88 | migration z between -2 and 2; enough cells | 1.12 | 5536 | inactive |
| POLR3G (GeneID 10622) | -0.08 | migration z between -2 and 2; enough cells | 0.79 | 4864 | inactive |
| FPGT (GeneID 8790) | 0.49 | migration z between -2 and 2; enough cells | 0.9 | 5974 | inactive |
| PANK3 (GeneID 79646) | -1.35 | migration z between -2 and 2; enough cells | 0.55 | 4003 | inactive |
| MAP4K2 (GeneID 5871) | -0.6 | migration z between -2 and 2; enough cells | 0.69 | 4852 | inactive |
| SPTBN5 (GeneID 51332) | 0.74 | migration z between -2 and 2; enough cells | 1.08 | 7106 | inactive |
| SPANXA2 (GeneID 728712) | -0.37 | migration z between -2 and 2; enough cells | 0.78 | 4100 | inactive |
| DEFA5 (GeneID 1670) | 0.41 | migration z between -2 and 2; enough cells | 0.99 | 5799 | inactive |
| PHF20L1 (GeneID 51105) | 0.7 | migration z between -2 and 2; enough cells | 0.94 | 6467 | inactive |
| AASS (GeneID 10157) | 0 | migration z between -2 and 2; enough cells | 0.8 | 6262 | inactive |
| MCM5 (GeneID 4174) | -1.22 | migration z between -2 and 2; enough cells | 0.57 | 4511 | inactive |
| YARS2 (GeneID 51067) | 0.23 | migration z between -2 and 2; enough cells | 0.94 | 6005 | inactive |
| SLC44A3 (GeneID 126969) | -0.16 | migration z between -2 and 2; enough cells | 0.84 | 5536 | inactive |
| SLC16A14 (GeneID 151473) | 0.57 | migration z between -2 and 2; enough cells | 1.03 | 6538 | inactive |
| TTC22 (GeneID 55001) | 1.9 | migration z between -2 and 2; enough cells | 1.38 | 5284 | inactive |
| PTK2 (GeneID 5747) | -1.46 | under 3300 nuclei; migration not judged | 0.52 | 2782 | inactive |
| BPY2 (GeneID 9083) | 0.67 | migration z between -2 and 2; enough cells | 1.06 | 6260 | inactive |
| PIM3 (GeneID 415116) | -0.21 | migration z between -2 and 2; enough cells | 0.76 | 6717 | inactive |
| SCGB3A2 (GeneID 117156) | 0.18 | migration z between -2 and 2; enough cells | 0.94 | 5603 | inactive |
| CDK1 (GeneID 983) | -0.54 | under 3300 nuclei; migration not judged | 0.7 | 2696 | inactive |
| VNN3P (GeneID 55350) | -0.21 | migration z between -2 and 2; enough cells | 0.76 | 4866 | inactive |
| CASS4 (GeneID 57091) | -1.62 | migration z between -2 and 2; enough cells | 0.46 | 6076 | inactive |
| SH2D4B (GeneID 387694) | 0.62 | migration z between -2 and 2; enough cells | 1.04 | 6447 | inactive |
| CD8B (GeneID 926) | -1.02 | migration z between -2 and 2; enough cells | 0.62 | 6232 | inactive |
| RILP (GeneID 83547) | -0.4 | migration z between -2 and 2; enough cells | 0.78 | 5404 | inactive |
| EPB41L4A (GeneID 64097) | 1.4 | migration z between -2 and 2; enough cells | 1.25 | 5442 | inactive |
| HBS1L (GeneID 10767) | -0.21 | migration z between -2 and 2; enough cells | 0.76 | 4938 | inactive |
| HDAC11 (GeneID 79885) | 0.52 | migration z between -2 and 2; enough cells | 0.9 | 5992 | inactive |
| OLFM1 (GeneID 10439) | -0.39 | migration z between -2 and 2; enough cells | 0.78 | 6662 | inactive |
| USP5 (GeneID 8078) | 0.36 | migration z between -2 and 2; enough cells | 0.88 | 5489 | inactive |
| TIMM44 (GeneID 10469) | -1 | migration z between -2 and 2; enough cells | 0.62 | 4860 | inactive |
